{
  "sequences": {"note": "The chains behind the UniProt entries cited, without tags or fusion partners. Where a name states a change or a piece, a line headed by the entry shows the natural chain unless it says otherwise. A line that says so, or that is headed by a name, gives the form on record, which may keep a tag or linker.", "UniProt P13569, with tags, fused parts or gaps DEL508-508": "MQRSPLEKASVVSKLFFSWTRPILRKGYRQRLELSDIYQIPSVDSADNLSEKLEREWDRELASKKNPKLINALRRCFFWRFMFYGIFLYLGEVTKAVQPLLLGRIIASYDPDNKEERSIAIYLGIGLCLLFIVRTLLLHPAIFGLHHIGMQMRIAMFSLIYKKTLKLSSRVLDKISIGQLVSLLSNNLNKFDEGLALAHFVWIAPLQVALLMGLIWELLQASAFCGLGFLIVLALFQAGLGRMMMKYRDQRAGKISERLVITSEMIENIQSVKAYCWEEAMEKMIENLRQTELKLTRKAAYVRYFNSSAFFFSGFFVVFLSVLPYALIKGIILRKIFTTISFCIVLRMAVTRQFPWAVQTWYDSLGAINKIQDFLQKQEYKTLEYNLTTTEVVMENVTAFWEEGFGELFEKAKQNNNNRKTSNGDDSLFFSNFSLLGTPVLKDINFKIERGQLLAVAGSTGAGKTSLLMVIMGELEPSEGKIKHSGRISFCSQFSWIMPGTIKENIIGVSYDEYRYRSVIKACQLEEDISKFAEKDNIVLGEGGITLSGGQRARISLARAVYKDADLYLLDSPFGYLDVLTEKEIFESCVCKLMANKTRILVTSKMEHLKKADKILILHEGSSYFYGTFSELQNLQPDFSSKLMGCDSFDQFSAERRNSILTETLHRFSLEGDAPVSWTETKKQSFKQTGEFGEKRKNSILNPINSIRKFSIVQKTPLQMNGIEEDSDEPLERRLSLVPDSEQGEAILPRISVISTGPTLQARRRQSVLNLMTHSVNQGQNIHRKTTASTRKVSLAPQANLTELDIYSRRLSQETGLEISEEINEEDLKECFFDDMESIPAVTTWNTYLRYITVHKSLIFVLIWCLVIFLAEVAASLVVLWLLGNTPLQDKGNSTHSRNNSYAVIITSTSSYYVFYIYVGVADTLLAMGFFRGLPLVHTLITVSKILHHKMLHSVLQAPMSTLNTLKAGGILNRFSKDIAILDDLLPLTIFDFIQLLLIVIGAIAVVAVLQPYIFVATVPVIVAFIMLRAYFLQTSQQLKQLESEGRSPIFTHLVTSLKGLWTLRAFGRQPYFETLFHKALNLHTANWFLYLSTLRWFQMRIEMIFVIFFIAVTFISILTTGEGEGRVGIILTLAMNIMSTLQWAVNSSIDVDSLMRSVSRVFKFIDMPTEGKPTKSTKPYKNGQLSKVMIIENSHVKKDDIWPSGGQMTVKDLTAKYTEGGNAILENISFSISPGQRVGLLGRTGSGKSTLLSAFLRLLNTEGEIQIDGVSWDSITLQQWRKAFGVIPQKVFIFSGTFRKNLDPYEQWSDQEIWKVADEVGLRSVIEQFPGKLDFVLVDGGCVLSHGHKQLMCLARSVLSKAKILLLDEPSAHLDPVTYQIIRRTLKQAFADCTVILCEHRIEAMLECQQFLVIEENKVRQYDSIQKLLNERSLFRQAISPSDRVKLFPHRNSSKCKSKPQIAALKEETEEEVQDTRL"},
  "source": "patent US20130072473A1",
  "about": "“COMPOUNDS FOR TREATING PROTEIN FOLDING DISORDERS” (PROTEOSTASIS THERAPEUTICS, INC., priority 2011, published 2013)",
  "molecular_target": "T1, ΔF508-CFTR (Homo sapiens, UniProt P13569, DEL508-508)",
  "T1 construct": "expressed in transfected cells; host or cells: CFBE41o- cells",
  "assay": "CFTR iodide flux assay (YFP quenching)",
  "assay_type": "cell-based",
  "conditions": "10 μM compound; CFBE41o− cells stably expressing ΔF508-CFTR and halide-sensitive YFP; stimulated 20 min with forskolin and test compounds; indirect measure of CFTR function",
  "note": "Some results were stated once for a whole list of compounds, not compound by compound.",
  "data": [
    {"molecule": "CCN1CCc2c(sc(NC(C)=O)c2C(=O)Nc2ccccc2)C1", "note": "[Example 52, 2-Acetamido-6-ethyl-N-phenyl-4,5,6,7-tetrahydrothieno[2,3-c]pyridine-3-carboxamide]", "values": [
      {"measurement": "Percent Quenching of YFP at 10 μM", "result": "<15", "unit": "%"}
    ]},
    {"molecule": "CC(=O)Nc1cc2c(c(-c3nc4ccccc4s3)c1)CCNC2", "note": "[Example 64, N-(5-(Benzo[d]thiazol-2-yl)-1,2,3,4-tetrahydroisoquinolin-7-yl)acetamide]", "values": [
      {"measurement": "Percent Quenching of YFP at 10 μM", "result": "<15", "unit": "%"}
    ]},
    {"molecule": "NC(=O)c1c(NC(=O)c2ccccc2Cl)sc2c1CCCC2", "note": "[Example 86, 2-(2-Chlorobenzamido)-4,5,6,7-tetrahydrobenzo[b]thiophene-3-carboxamide]", "values": [
      {"measurement": "Percent Quenching of YFP at 10 μM", "result": "<15", "unit": "%"}
    ]},
    {"molecule": "CCN1CCc2c(sc(NC(C)=O)c2-c2nc(C)c(C)s2)C1", "note": "[Example 87, N-(3-(4,5-Dimethylthiazol-2-yl)-6-ethyl-4,5,6,7-tetrahydrothieno[2,3-c]pyridin-2-yl)acetamide]", "values": [
      {"measurement": "Percent Quenching of YFP at 10 μM", "result": "<15", "unit": "%"}
    ]}
  ]
}
